# Results: PubChem BioAssay AID504467 (National Center for Advancing Translational Sciences (NCATS), 2011)
# Out of some 330,000 compounds screened, about 7,700 (2.3%) were called active. This list was built around the results that the source calls inconclusive (neither active nor inactive); the mix of calls is not that of the screen. Calls follow the shape of the dose curve; as a rule, active = well fitted inhibition curve with a large enough effect; inconclusive = small, poorly fitted or top-dose-only effect, or effect the other way; inactive = flat fitted curve, though single readings scatter. Where the call is inconclusive, the potency comes from a doubtful curve fit.
# Assay: qHTS screen for small molecules that inhibit ELG1-dependent DNA repair in human embryonic kidney (HEK293T) cells expressing luciferase-tagged ELG1; also: nearly all actives have a fitted effect of over 55% in size
# Conditions: HEK293T ELG1-luciferase reporter, luminescence, 16 h, DNA damage induced by 5-fluorouridine; series mostly up to 46.1 µM
# How it was run: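 Cells (2,000 per well) received 5-fluorouridine plus test compound or DMSO and were incubated 16 hr at 37 °C, 5% CO2. Luciferase activity was read by luminescence 30 min after ONE-Glo addition; signal suppression marked inhibition of damage-induced ELG1 function.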
# Potency is read from the fitted curve at half-maximal effect.
row,SMILES,Potency
1,CCOC(=O)/C(=C\c1ccc([N+](=O)[O-])o1)NC(=O)c1ccccc1,"inconclusive: 25.9 µM [inhibitor, single point]"
2,Cn1c(=O)[nH]c(=O)c2c1nc(CN1CCN(c3ccc(F)cc3)CC1)n2CCCc1ccccc1,"inconclusive: 11.2 µM [inhibitor, partial curve]"
3,CN(CCN(C)C(=O)c1[nH]cnc1C(=O)Nc1ccccc1)C(=O)c1[nH]cnc1C(=O)Nc1ccccc1,"inconclusive: 23.1 µM [inhibitor, partial curve]"
4,C=CCn1c(SCc2nc(N)nc(N(C)C)n2)nnc1-c1cccnc1,"inconclusive: 32.6 µM [inhibitor, single point]"
5,Cc1ccc(CSc2ncnc3c2cnn3-c2ccccc2)cc1,"inconclusive: 16.4 µM [activator, single point]"
6,Cc1cc(NC(=O)c2cc(S(=O)(=O)N3CCCCC3)ccc2C)n(-c2ccccn2)n1,"inconclusive: 29.1 µM [inhibitor, single point]"
7,CCc1nnnn1-c1ccc([N+](=O)[O-])cc1C,inactive
8,Cc1ccc(C(=O)OCC(=O)Nc2ccc3c(c2)OCO3)c(O)c1,"inconclusive: 6.31 µM [activator, partial curve, poor fit]"
9,Cc1ccc(-c2csc(N3CCN(c4ccc5nc(-c6ccncc6)n(CCN6CCCCC6)c5c4)CC3)n2)cc1,"inconclusive: 23.1 µM [inhibitor, single point]"
10,COc1ccc(CCNC(=O)/C=C\c2ccccc2)cc1OC,inactive
11,O=C(O)c1ccccc1SCCS(=O)(=O)c1ccc(Cl)cc1Cl,inactive
12,Cc1cccnc1NC(=O)C1CCN(S(=O)(=O)c2ccc3ccccc3c2)CC1,inactive
13,COCCN=C1NN=C(c2ccc(NC(C)=O)cc2)CS1,"inconclusive: 23.1 µM [inhibitor, partial curve, poor fit]"
14,COc1cccc(OC)c1C(=O)Nc1ccccc1C(=O)N1CCCCCC1,inactive
15,CC(C)(C)c1ccc(OCCNC(=O)c2ncn[nH]2)cc1,"inconclusive: 23.1 µM [activator, partial curve, poor fit]"
16,Fc1ccc(-c2nnc(-c3ccc(F)cc3)o2)cc1,"inconclusive: 20.6 µM [activator, partial curve]"
17,COc1ccc(C(c2sc3nc(C)nn3c2O)N2CCc3ccccc3C2)cc1 (configuration not stated),inactive
18,COc1ccc(C)c(S(=O)(=O)Nc2ccc(OCC(=O)O)cc2)c1,"inconclusive: 29.1 µM [activator, single point]"
19,Nc1ncnc(N2CCc3ccccc32)c1[N+](=O)[O-],active: 1.83 µM
20,COc1ccc2sc(N(CCCN(C)C)C(=O)c3ccc(S(=O)(=O)N4CCc5ccccc5C4)cc3)nc2c1,"inconclusive: 29.1 µM [inhibitor, single point]"
21,CCOC(=O)N1CCN(Cc2nc(-c3ccc(Cl)cc3)no2)CC1,inactive
22,COc1ccc([N+](=O)[O-])cc1NC(=O)c1ccc(N(Cc2ccccc2C)S(C)(=O)=O)cc1,"inconclusive: 7.31 µM [inhibitor, partial curve, poor fit]"
23,CCN(CC)CCN(C(=O)C1=COCCO1)c1nc2c(OC)ccc(OC)c2s1,inactive
24,Fc1ccc(CSc2ccc3nnc(-c4ccccn4)n3n2)cc1,"inconclusive: 23.1 µM [inhibitor, single point]"

# Reformatted: entries from further up.
row	SMILES	Potency
20	COc1ccc2sc(N(CCCN(C)C)C(=O)c3ccc(S(=O)(=O)N4CCc5ccccc5C4)cc3)nc2c1	inconclusive: 29.1 µM [inhibitor, single point]
21	CCOC(=O)N1CCN(Cc2nc(-c3ccc(Cl)cc3)no2)CC1	inactive
22	COc1ccc([N+](=O)[O-])cc1NC(=O)c1ccc(N(Cc2ccccc2C)S(C)(=O)=O)cc1	inconclusive: 7.31 µM [inhibitor, partial curve, poor fit]
23	CCN(CC)CCN(C(=O)C1=COCCO1)c1nc2c(OC)ccc(OC)c2s1	inactive

# Remaining list, next part:

row,SMILES,Potency
1,COc1cccc(NC2=C(NCCO)C(=O)c3ccccc3C2=O)c1,"inconclusive: 15.8 µM [inhibitor, single point]"
2,COc1ccccc1C(=O)NNc1ncc(C)s1,inactive
3,CCCOc1ccc(C(=O)CCNc2ccc(C)c(Cl)c2)cc1,inactive
4,CCc1ccc2c(c1)cc(CN(C(=S)Nc1ccccc1)C1CC1)c1nnnn12,"inconclusive: 18.4 µM [inhibitor, partial curve, poor fit]"
5,O=c1[nH]nc(N/N=C/c2ccc(Cl)cc2Cl)c(=O)[nH]1,"inconclusive: 18.3 µM [activator, partial curve]"
6,O=C(Nc1cc(Cl)ccc1Cl)c1ccco1,"inconclusive: 12.6 µM [inhibitor, single point]"
7,O=C(CN1C(=O)NC2(CCCCCCC2)C1=O)Nc1cccc(Br)c1,inactive
8,Cc1ccc(NC(=O)Cc2c(F)cccc2Cl)cc1S(=O)(=O)N1CCOCC1,"inconclusive: 20.6 µM [inhibitor, single point]"
9,COc1ccc(OCC(O)CNC(C)c2ccccc2)cc1 (configuration not stated),inactive
10,Cc1ccc(OCCOCCN2CCCCC2)c([N+](=O)[O-])c1,inactive
11,CCc1nc(SCC(=O)c2ccc(Cl)s2)c2oc3ccccc3c2n1,inactive
12,CNS(=O)(=O)c1ccc(Cl)nc1,inactive
13,CCCCOc1ccc(-c2[nH]ncc2C=O)cc1,"inconclusive: 14.6 µM [activator, partial curve]"
14,CCOC(=O)C1(Cc2cccc(OC)c2)CCCN(C(=O)c2cc(CC(C)C)[nH]n2)C1 (configuration not stated),"inconclusive: 16.4 µM [activator, partial curve]"
15,CCc1nc2ccccc2c(C(=O)OCc2nc3ccccc3c(=O)[nH]2)c1C,active: 13 µM
16,O=C(NCc1cc(C(F)(F)F)ccc1Cl)c1cccc2c1C(=O)c1ccc(N3CCCCC3)cc1S2(=O)=O,"inconclusive: 3.66 µM [inhibitor, single point]"
17,CCCCN(C)Cc1c(O)ccc2c(-c3ccccc3)cc(=O)oc12,inactive
18,O=C1Nc2ccc(Br)cc2C1(O)Cc1ccncc1 (configuration not stated),inactive
19,CCn1nc(C(=O)Nc2ccc(Cl)c(S(=O)(=O)N3CCOCC3)c2)c2ccccc2c1=O,"inconclusive: 14.6 µM [inhibitor, partial curve]"
20,Cc1ccc(NC(=O)CCSc2ccccn2)cc1,"inconclusive: 8.2 µM [activator, partial curve]"
21,COc1ccc(/C=C/c2cc(=O)c3cc(Cl)ccc3o2)cc1,"inconclusive: 29.1 µM [activator, partial curve, poor fit]"
22,CCOC(=O)c1oc2nc3c(cc2c1N)CCCC3,"inconclusive: 3.66 µM [activator, full curve]"
23,CCCCN=Cc1c(C)[nH]n(-c2ccccc2)c1=S,inactive
24,CCOC(=O)N1CCC(Nc2ncnc3c2cnn3-c2ccccc2)CC1,"inconclusive: 18.4 µM [inhibitor, partial curve]"

row,SMILES,Potency
1,CCOc1ccccc1Nc1nc(-c2sc(NC(=O)c3ccco3)nc2C)cs1,"inconclusive: 20.6 µM [inhibitor, partial curve]"
2,C#CCOCCOCCOCCNc1nc(N2CCOCC2)nc(N2CCN(C(=O)CCCCCCCCCCNC(=O)[C@@H]([C@H](C)CC)n3cc(CCCCCN)nn3)CC2)n1,"inconclusive: 10 µM [inhibitor, single point]"
3,CC(=O)c1ccc(N2CCN(C(=O)CCNC(=O)Cn3ccc4ccccc4c3=O)CC2)cc1,"inconclusive: 29.1 µM [inhibitor, single point]"
4,COc1ccc(OCc2cc(C(=O)NCC3CCOCC3)no2)c(Cl)c1,"inconclusive: 20.6 µM [activator, partial curve]"
5,COC(=O)C1C(=O)c2c([nH]c(C(=O)OCC3CCCO3)c2C)CC1C (configuration not stated),"inconclusive: 11.6 µM [activator, partial curve]"
6,COc1ccc(Cl)cc1NC(=O)COC(=O)C1=NNC(=O)CC1,inactive
7,CCCCn1c(N)c(N(CC(C)C)C(=O)c2cc(-c3ccncc3)nc3ccccc23)c(=O)[nH]c1=O,inactive
8,CSCCC(NC(=O)c1ccco1)C(=O)NCC1CCCO1 (configuration not stated),inactive
9,COc1cc(C2=NOC(C(=O)NCc3ccc(F)cc3)C2)cc(OC)c1OC (configuration not stated),"inconclusive: 6.51 µM [activator, single point]"
10,CCOc1ccc2cc(C(=O)NCc3ccccc3)c(=N)oc2c1,"inconclusive: 20.6 µM [activator, partial curve]"
11,Cc1ccccc1S(=O)(=O)Cc1ccc(C(=O)NCCc2ccccc2)o1,"inconclusive: 6.51 µM [activator, partial curve, poor fit]"
12,COc1ccc(S(=O)(=O)N2CCCC2C(=O)NCc2cccs2)cc1 (configuration not stated),inactive
13,Cc1ccc(C(C)C)c(OCc2ccc(C(=O)N/N=C/c3ccc(O)c(O)c3)cc2)c1,"inconclusive: 23.1 µM [activator, partial curve]"
14,O=C(NCCCc1ccccc1)Nc1ccccc1,"inconclusive: 23.1 µM [activator, single point]"
15,COc1cccc(-c2nn(C)c3sc(C(=O)NCc4ccc(C)o4)cc23)c1,"inconclusive: 23.1 µM [inhibitor, single point]"
16,CN1CCN(Cc2ccc(OCc3ccccc3)cc2)CC1,"inconclusive: 7.31 µM [activator, partial curve]"
17,CC(=O)Oc1ccc(C(=O)Nc2ccc3c(c2)OCCO3)cc1,"inconclusive: 2.51 µM [activator, full curve]"
18,CC(C)c1c(O)c2c(n(-c3ccccc3)c1=O)CCCC2,inactive
19,O=C(Nn1cnnc1)c1cc2c(s1)CCCC2,"inconclusive: 18.4 µM [activator, partial curve, poor fit]"
20,CCOC(=O)c1cc(-c2ccccc2)n(CC(=O)O)c1C,inactive
21,CC(C)c1ccc2c(c1)[C@H]1OCC[C@H]1[C@@H](c1cccs1)N2,"inconclusive: 3.66 µM [inhibitor, single point]"
22,COc1cccc(CC(=O)OCC(=O)N(C)CC(=O)Nc2ccccc2Cl)c1,inactive
23,CNC(=S)Nc1cc(C(F)(F)F)ccc1Cl,inactive
24,O=C(NC1CCCCC1)C(c1cccnc1)N(C(=O)CCl)c1ccc(F)cc1 (configuration not stated),active: 20.6 µM
